Source: PubChem BioAssay AID1347076 (National Center for Advancing Translational Sciences (NCATS), 2019)
The whole screen tested about 400,000 compounds, of which about 13,000 (3.2%) were called active. Inconclusive means that the source gave no clear call. Such entries were picked first, then a sample of the others. Calls come from the whole dose curve; as a rule, active = well fitted cell-killing curve with a large enough effect; inconclusive = small, poorly fitted or top-dose-only effect, or effect the other way; inactive = flat fitted curve, though single readings scatter. Potencies of inconclusive entries are doubtful fits and often do not repeat.

Assay: qHTS assay for MDR1-selective chemotherapeutics: Primary screen using the drug-selected MDR subline cells KB-V1; note: nearly all actives have a fitted effect of over 60% in size
Details: KB-V1 MDR cells viability, CellTiter-Glo, 72 h; activity change, negative = cytotoxicity: at 46.1 µM (top of the series)
In short: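 Following 72 h at 37 degrees C with compound, KB-V1 cell viability was read by CellTiter-Glo luminescence, medium being phenol-red-free DMEM plus 10% FBS; concentration-response parameters came from normalized, curve-fitted qHTS data.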
% is set by controls: 0 for no effect and ±100 for the full control effect; potency is the fitted concentration of half-maximal effect.

Structure (SMILES)	activity change, negative = cytotoxicity	Potency
Cc1cc(-c2ccc(S(=O)(=O)Nc3ccc(Br)c(C)c3)s2)on1	inactive: 4.61%	–
O=C(Nc1ccc(Cc2ccncc2)cc1)c1cccc([N+](=O)[O-])c1	–	inconclusive: 29.1 µM [cytotoxic, single point]
C=CCn1c2ccccc2c(=O)c2cc(C#CC3(O)CCCCC3)ccc21	inactive: -8.45%	–
CCOC(=O)C(C)n1nc(C)c2sc3ccccc3c2c1=O (stereo not given)	–	active: 20.6 µM
COc1ccc(S(=O)(=O)N2CCN(CC(=O)Nc3ccc(Cl)c(C(F)(F)F)c3)CC2)cc1	–	inconclusive: 29.1 µM [cytotoxic, single point]
O=C(CNC(=O)OCc1ccccc1)NC(Cc1cnc[nH]1)C(=O)O (stereo not given)	inactive: 0%	–
CC1(c2ccc(F)cc2)OC(=O)c2c1ccc1ccccc21 (stereo not given)	–	inconclusive: 7.31 µM [cytotoxic, partial curve]
Cc1ccc(SC2=C[C@@]3(O)CC[C@@H](O)[C@@](Sc4ccc(C)cc4)(C2=O)[C@H]3O)cc1	–	active: 16.4 µM
COc1ccc(CNC(=O)c2cc3cccc4c3n2CC(C)S4)c(OC)c1 (stereo not given)	–	inconclusive: 13 µM [cytotoxic, partial curve, poor fit]
CC(C)c1ccc(C(=O)CN2C(=O)NC3(CCc4ccccc43)C2=O)cc1 (stereo not given)	–	inconclusive: 14.6 µM [cytotoxic, partial curve, poor fit]
Cc1cc(C(=O)N/N=C/c2cc([N+](=O)[O-])ccc2O)c2ccccc2n1	–	inconclusive: 8.2 µM [cytotoxic, partial curve]
Cc1cc(S(=O)(=O)N2CCCOC2CNC(=O)C(=O)NCCc2ccco2)ccc1F (stereo not given)	–	inconclusive: 29.1 µM [cytotoxic, single point]
Cc1cc2cc(C#N)c(SCC(=O)Nc3nonc3C)nc2cc1C	inactive: 2.94%	–
O=C(CSc1ncc(CO)n1Cc1ccc(Cl)cc1)NCc1ccc(F)cc1	inactive: -6.64%	–
COC(=O)c1cc2oc(C)cc2n1CC(=O)Nc1cc(Cl)ccc1OC	inactive: -7.17%	–
O=C(CC12CC3CC(CC(C3)C1)C2)N1CCCOC1	inactive: -8.12%	–
CCCN1CCN(CCCNC(=O)c2ccc(CS(=O)c3ccccc3C)o2)CC1 (stereo not given)	–	inconclusive: 29.1 µM [rising, single point]
CCCNC(=S)N1CCN(c2nc(-c3cccc(OC)c3)cs2)CC1	–	inconclusive: 23.1 µM [cytotoxic, single point]
COc1ccccc1NC(=S)N(Cc1ccco1)Cc1cc2ccc(C)c(C)c2[nH]c1=O	–	active: 1.84 µM
CN(CC(=O)Nc1ccc(Cl)cc1)C(=O)c1sccc1-c1ccccc1	–	inconclusive: 29.1 µM [cytotoxic, single point]
O=[N+]([O-])c1ccccc1S(=O)(=O)NC1CC2CCC1C2 (stereo not given)	–	inconclusive: 16.4 µM [rising, single point]
Cc1cccc(C)c1NC(=O)C1c2ccccc2OCC(=O)N1Cc1ccc2c(c1)OCO2 (stereo not given)	inactive: 34.8%	–
CC(C)C(N)c1csc(Nc2ccc(C(F)(F)F)cn2)n1 (stereo not given)	–	inconclusive: 29.1 µM [cytotoxic, single point]
C/C(=N/OC(=O)c1c(-c2ccccc2Cl)noc1C)c1cnccn1	–	inconclusive: 0.0082 µM [cytotoxic, full curve]

Structure (SMILES)	activity change, negative = cytotoxicity	Potency
OC(CNCC1CCCO1)COc1ccc(OCC(O)CNCC2CCCO2)cc1 (stereo not given)	–	inconclusive: 29.1 µM [rising, single point]
O=C(O)C(C=C(Cl)Cl)N1CCOCC1 (stereo not given)	inactive: -1.51%	–
COc1cc(/C=N/NC(=S)Nc2cccc(S(=O)(=O)N(C)C)c2)ccc1O	inactive: 5.11%	–
COc1ccccc1NC(=O)c1cnc(Nc2ccccc2OC)c2ccccc12	–	active: 9.2 µM
COc1ccc(S(=O)(=O)NCC(c2ccc(N(C)C)cc2)N2CCOCC2)cc1 (stereo not given)	inactive: 2.26%	–
Cc1ccc(S(=O)(=O)N2CCN(C(=O)COC(=O)/C=C/c3cccc([N+](=O)[O-])c3)CC2)c(C)c1	–	inconclusive: 11.6 µM [cytotoxic, partial curve]
O=[N+]([O-])c1cc(NS(=O)(=O)c2ccc(Cl)nc2)ccc1Cl	–	inconclusive: 18.4 µM [cytotoxic, single point]
Cn1ccnc1C1CCCCN1C(=O)c1cc(COc2ccc(F)cc2F)on1 (stereo not given)	–	inconclusive: 5.8 µM [cytotoxic, partial curve, poor fit]
Cc1cc(C)nc(SCC(=O)Nc2ccc(S(=O)(=O)NCCO)cc2)n1	inactive: 0.0833%	–
CCOc1ccc(CCNC(=O)c2cccc(NC3=NC4CS(=O)(=O)CC4S3)c2)cc1 (stereo not given)	inconclusive: 37.6%	–
O=C(Nn1cnnc1)c1ccc(Cl)cc1[N+](=O)[O-]	–	inconclusive: 29.1 µM [rising, single point]
C[C@]12c3[nH]c4cc(-c5ccco5)ccc4c3CCN1C(=O)[C@@H](CC(=O)NCC13CC4CC(CC(C4)C1)C3)C[C@@H]2C(=O)N1CCOCC1	–	active: 23.1 µM
Oc1ccccc1N=Nc1ccccc1O	–	inconclusive: 1.84 µM [cytotoxic, full curve, poor fit]
COc1ccc(CNC(=O)CSc2ncc(S(=O)(=O)c3ccc(Br)cc3)c(=O)[nH]2)cc1	–	inconclusive: 29.1 µM [rising, single point]
CC1=C(n2ccnc2)CCC1=O	–	inconclusive: 23.1 µM [cytotoxic, partial curve, poor fit]
Cc1cccc(N(Cc2ccccc2)C(=O)C2CCN(C(=O)c3ccccc3C)CC2)c1	inactive: 0%	–
COC(=O)Nc1nc2ccc(Sc3ccccc3)cc2[nH]1	–	active: 1.16 µM
CN1C(=O)c2ccccc2C(C(=O)NCc2ccco2)C1c1c[nH]c2ccccc12 (stereo not given)	–	inconclusive: 25.9 µM [cytotoxic, single point]
Cc1ccc(NC(=O)[C@@]2(CC(=O)O)CC(/C=C/c3ccccc3)=NO2)c(C)c1	–	inconclusive: 18.4 µM [rising, single point]
CCN1CCN(c2cc3nc(C)n(Cc4ccccc4)c(=O)c3cc2NC(=O)c2ccccc2F)CC1	–	inconclusive: 29.1 µM [cytotoxic, single point]
CC(=O)NC(c1ccccc1)c1nc(-c2cc3ccccc3o2)cs1 (stereo not given)	inactive: -10.4%	–
CNC(=O)CSc1nnc(-c2ccco2)n1-c1cccc(OC)c1	–	inconclusive: 29.1 µM [rising, single point]
COc1cccc(-c2nc(CS(=O)(=O)CC(=O)Nc3ccccc3Br)c(C)o2)c1	inactive: -12.2%	–
Cc1cc(NCCN2CCOCC2)n2ncc(-c3ccccc3)c2n1	–	inconclusive: 13 µM [cytotoxic, partial curve, poor fit]

Structure (SMILES)	activity change, negative = cytotoxicity	Potency
COCCn1c(=O)[nH]c2cc(C(=O)NCCN3CCN(c4ccccc4F)CC3)ccc2c1=O	inactive: 0.845%	–
CC1CCCCC1NC(=O)c1c(O)nc2ccccn2c1=O (stereo not given)	–	inconclusive: 16.4 µM [cytotoxic, single point]
CCC(C)[C@H]1CNCCN1CCc1cccc2ccccc12 (stereo not given in full)	inactive: -10.1%	–
CN(C(=O)c1ccc(S(=O)(=O)NC2CCCC2)cc1)C1CCCCC1	–	inconclusive: 23.1 µM [cytotoxic, partial curve, poor fit]
CCOc1ccc(CCNC(=O)CCOc2cc(C)ccc2C)cc1OCC	–	inconclusive: 14.6 µM [cytotoxic, single point]
O=C(COC(=O)c1c(F)cccc1Cl)NCC1CCCCC1	inactive: -23.2%	–
O=C(CSC1=Nc2ccccc2N=C(c2ccc(F)cc2)C1)NCc1ccccc1Cl	inactive: 3.01%	–
Cc1ccc(N=C2NC(=O)/C(=C\c3ccsc3)S2)c(C)c1	–	active: 18.4 µM
CN=C(Nc1cc(Cl)ccc1Cl)SC1CC(=O)N(c2ccc(C(=O)OC)cc2)C1=O (stereo not given)	–	inconclusive: 23.1 µM [cytotoxic, single point]
COC(CNC(=O)C(=O)Nc1ccc2c(c1)N(S(=O)(=O)c1cccs1)CCC2)OC	–	inconclusive: 25.9 µM [cytotoxic, single point]
COc1cc(N(C)C)ccc1C=c1c2ccccc2n2c1cc(-c1ccccc1)[n+]2C	–	inconclusive: 20.6 µM [cytotoxic, partial curve]
O=C(O)CSCC(=O)NCc1cccc(C(F)(F)F)c1	–	inconclusive: 2.91 µM [cytotoxic, partial curve, poor fit]
COc1ccccc1NC(=O)CCc1nc(-c2ccccc2F)no1	–	inconclusive: 16.4 µM [cytotoxic, single point]
Cn1cc(S(=O)(=O)NCc2ccc3c(c2)OCO3)c(C(F)(F)F)n1	–	inconclusive: 18.4 µM [rising, partial curve, poor fit]
CC(=O)Nc1ccc(S(=O)(=O)N(C)CC(=O)OCC(=O)N(C)C2CCS(=O)(=O)C2)cc1 (stereo not given)	inactive: 1.02%	–
O=C(Nc1ccncc1)c1ccc2c(c1)OCCO2	–	inconclusive: 29.1 µM [cytotoxic, single point]
CN(C)c1cc2c(c(N(C)C)c1)C(=O)c1ccccc1C2=O	–	inconclusive: 8.2 µM [cytotoxic, partial curve, poor fit]
NC(Cc1ccc(F)cc1)c1csc(Nc2ccc(C(=O)c3ccccc3)cc2)n1 (stereo not given)	–	inconclusive: 20.6 µM [cytotoxic, single point]
COCCCn1c(SCc2nnc(-c3ccc(OC)c(OC)c3)o2)nc2ccccc2c1=O	–	inconclusive: 13 µM [cytotoxic, partial curve]
COc1ccccc1CC(=O)Nc1ccc2nc(C)sc2c1	–	inconclusive: 20.6 µM [cytotoxic, single point]
c1ccc2nc3c(nc2c1)c1ccccc1n3CCN1CCOCC1	–	inconclusive: 29.1 µM [cytotoxic, single point]
CSCCC(NS(=O)(=O)c1cccc(C(F)(F)F)c1)C(=O)N(C)Cc1ccc2c(c1)OCCO2 (stereo not given)	–	inconclusive: 7.31 µM [cytotoxic, partial curve]

Of the compounds above, 3 contain bromine:
Structure (SMILES)	activity change, negative = cytotoxicity	Potency
Cc1cc(-c2ccc(S(=O)(=O)Nc3ccc(Br)c(C)c3)s2)on1	inactive: 4.61%	–
COc1ccc(CNC(=O)CSc2ncc(S(=O)(=O)c3ccc(Br)cc3)c(=O)[nH]2)cc1	–	inconclusive: 29.1 µM [rising, single point]
COc1cccc(-c2nc(CS(=O)(=O)CC(=O)Nc3ccccc3Br)c(C)o2)c1	inactive: -12.2%	–
